Laboratory results taken from paper doi:10.1101/2020.05.29.123786.

Molecular target: T1, PilQ from Pseudomonas aeruginosa (type IVa pilus secretin) (Pseudomonas aeruginosa) (UniProt P34750)
T1 sequence: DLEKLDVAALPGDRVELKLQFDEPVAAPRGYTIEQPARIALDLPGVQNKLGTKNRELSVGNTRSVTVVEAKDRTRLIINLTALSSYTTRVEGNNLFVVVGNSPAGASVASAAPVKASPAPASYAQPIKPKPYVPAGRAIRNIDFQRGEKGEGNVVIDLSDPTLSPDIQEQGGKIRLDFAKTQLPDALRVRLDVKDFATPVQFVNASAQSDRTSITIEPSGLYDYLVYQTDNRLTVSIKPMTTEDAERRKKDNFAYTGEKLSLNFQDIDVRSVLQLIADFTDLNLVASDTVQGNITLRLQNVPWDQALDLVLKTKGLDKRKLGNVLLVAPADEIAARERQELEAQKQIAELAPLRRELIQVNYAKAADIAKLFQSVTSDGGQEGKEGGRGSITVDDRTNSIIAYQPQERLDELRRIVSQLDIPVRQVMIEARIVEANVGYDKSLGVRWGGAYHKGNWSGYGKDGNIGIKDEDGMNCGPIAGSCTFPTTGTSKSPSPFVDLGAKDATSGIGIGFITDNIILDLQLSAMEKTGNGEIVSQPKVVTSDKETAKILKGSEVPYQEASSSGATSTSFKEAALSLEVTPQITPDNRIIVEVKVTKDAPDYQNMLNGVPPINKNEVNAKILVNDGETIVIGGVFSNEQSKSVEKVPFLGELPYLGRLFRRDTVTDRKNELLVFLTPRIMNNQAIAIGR
Assay: affinity purification with mass spectrometry

In the case of TsaP from Pseudomonas aeruginosa, the binding is reported as “binds”.

Results are given in words; binding and its absence hold for the method and conditions named. Binding seen in cells or lysates may run through a third protein. Here binding means that the protein was enriched with, or labelled near, the bait; the list need not be complete.
